Measurements from ChEMBL document CHEMBL4296182, “CO-ADD screening of NIH NCI Diversity Set V”.
Some of the results follow. Entries with a potency or affinity are not part of this list.

Each molecule was assayed on Pseudomonas aeruginosa. Settings: Concentration 20 uM; ASSAY_TEST Inhibition of Bacterial Growth; detection method Absorption (OD600); MEDIA CAMHB; plate type 384well; NBS; CORNING #3640; time 18 hr.

| Structure (SMILES) | Inhibition |
| --- | --- |
| O=c1nc(C(F)(F)C(F)(F)C(F)(F)F)[nH]o1 | 4.49% |
| c1cnc2c(c1)ccc1ncccc12 | 13.33% |
| N#CC12CNCC1CN=N2 (stereo unspecified) | -9.75% |
| Cc1nc(C)c(C(=O)N/N=C/c2ccc(N(CCCl)CCCl)cc2)s1 | 14.63% |
| Cc1ccc(N2C(=O)C(=CN)C(=O)N(c3ccc(C)cc3)C2=O)cc1 | 22.46% |
| CN1CCN(c2nc(N)cc(O)n2)CC1 | -0.59% |
| CC(C)(C)c1cc(C=C(C#N)C#N)cc(C(C)(C)C)c1O [TYRPHOSTIN A9] | 10.25% |
| FCCN(CCF)c1cccc(Cl)c1 | 9.25% |
| O=C1/C(=C\c2ccccc2)C2OCC=C3CN4CCC56c7ccccc7N1C5C2C3CC46 (stereo unspecified) | 25.76% |
| O=[N+]([O-])c1cc([As](=O)(O)c2ccc(O)c([N+](=O)[O-])c2)ccc1O | 23.48% |
| Nc1nc(N)c2cnnn2n1 | -10.93% |
| O=P(OC1=CCCCC1)(c1ccccc1)c1ccccc1 | 8.74% |
| O=C1N(c2nncs2)CCN1[N+](=O)[O-] | 7.04% |
| CN1C2CCC1[C@@H](COC(=O)c1ccccc1)[C@@H](O)C2 (stereo partly specified) | -11.83% |
| CCCC(=O)N(C)C1=Nc2ccc(Cl)cc2C(c2ccccc2)=[N+]([O-])C1 | 12.3% |
| Cc1nccc2c1[nH]c1cc(O)ccc12 | 15.56% |
| Cc1ccc2cc3c(ccc4ccccc43)c3c2c1CC3 [3-METHYLCHOLANTHRENE] | 25.55% |
| O=C1CN=C(c2ccc[nH]2)c2cc(Cl)ccc2N1 | -0.79% |
| C[C@H]1CC[C@H]2NCCN[C@H]2C1 | 26.77% |
| CCc1cc2c(cc1-c1csc(CC(=N)NO)n1)C(C)(C)CCC2(C)C | -14.69% |
| O=c1cccc2n1C[C@H]1CNC[C@H]2C1 | 4.01% |
| CCOP(=O)(OCC)/C(C#N)=C/c1ccc(Br)cc1 | 28.48% |
| CS(=O)(=O)O.O=C1CCC2(O)[C@@H]3Cc4ccc(O)c5c4[C@]2(CCN3Cc2ccoc2)C1O5 (stereo partly specified) | -12.23% |
| c1ccc(C2NCCc3[nH]cnc32)cc1 (stereo unspecified) | -6.54% |
| C[C@H]1CC[C@@]2(C)[C@@H](CC[C@@H]3[C@@H]2CC[C@]2(C)[C@@H](O)CC[C@@H]32)C1 | 5.17% |
| NN=C1C(Cl)=C(Cl)C(Cl)=C1Cl | -24.45% |

| Structure (SMILES) | Inhibition |
| --- | --- |
| CCN(CC)c1ccc(C=C2C(=O)NC(=S)NC2=O)cc1 | -12.94% |
| c1cncc(C2Nc3cccc4cccc(c34)N2)c1 | -23.18% |
| CN1C(=O)CC[C@@]2(C)C1=CC[C@@H]1[C@@H]2CC[C@@]2(C)[C@H]1CC[C@]2(C)O | 16.23% |
| CN1CCCC1c1ccc(O)nc1 (stereo unspecified) | 22.02% |
| CN1C2c3ccccc3C3C4c5ccccc5C(C31)C(C2[N+](=O)[O-])N4C (stereo unspecified) | 28.89% |
| CC(=O)Nc1cc([As](=O)(O)O)ccc1O [ACETARSONE] | 6.7% |
| CC12CCC3C(CCC4Cc5[nH]c6ccccc6c5CC43C)C1CCC2O (stereo unspecified) | 17.33% |
| CCN1CCc2ccccc2C1 | 23.03% |
| NC=C1C(=O)N(c2ccccc2)C(=O)N(c2ccccc2)C1=O | 27.98% |
| O=c1cccc2n1C[C@H]1C[C@@H]2CN2CCCC[C@@H]12 | 2.05% |
| CCC(CO)NC(=O)C1C=C2c3cccc4[nH]cc(c34)CC2N(C)C1 (stereo unspecified) | -11.27% |
| O=C(Oc1ccccc1)N(c1ccccc1)c1ccccc1 | 9.65% |
| COc1ccc(OC(=O)Nc2ccc([N+](=O)[O-])cc2OC)cc1 | 14.08% |
| Cc1c(CCN)ccc2c1[nH]c1ccccc12 | -0.06% |
| COc1ccc(CCNC2(C#N)CCCCC2)cc1OC | 10.69% |
| [Cl-].c1ccc(-c2nn(-c3ccccc3)[n+](-c3ccccc3)n2)cc1 [TETRAZOLIUM RED] | 16.55% |
| O=C(CF)N(O)c1ccc(/C=C/c2ccccc2)cc1 | 4.77% |
| Cc1cc(OCCN2CC2)c2ccccc2n1 | 13.17% |
| O=C(NC(=O)c1c(F)cccc1F)Nc1cc(Cl)c(F)c(Cl)c1F [TEFLUBENZURON] | 15.11% |
| CC1CC(C)OP(=O)(OCCC#N)O1 (stereo unspecified) | 10.89% |
| COc1ccc2c(c1)NP(=S)(Oc1ccccc1)N2 (stereo unspecified) | -3.1% |
| CN(C)P(=O)(N(C)C)N1CC1 | 29.31% |
| O=C1C[C@@H]2OCC=C3C[N+]4([O-])CC[C@]56c7ccccc7N1[C@H]5[C@H]2[C@H]3C[C@@H]64 (stereo partly specified) | 9.12% |
| C1CC2NCCC3NCCC(N1)N32 (stereo unspecified) | 27.86% |
| Cn1cc(C=O)c2nccnc21 | -20.09% |
| CC(=O)Nc1ccc([As](=O)(O)c2ccc([N+](=O)[O-])cc2)cc1 | 8.63% |

| Structure (SMILES) | Inhibition |
| --- | --- |
| CCOC(=O)c1ccc2nc(-c3ccc(S(=O)(=O)F)cc3)cc(O)c2c1 | 14.09% |
| CSc1nc(=O)c(/N=N/c2ccc([As](=O)(O)O)cc2)c(N)[nH]1 | 24.01% |
| N=C(N)N/N=C/c1c(Cl)cccc1Cl [GUANABENZ] | 14.02% |
| CN1C(=O)NC(=O)C(/N=N/c2ccc(Cl)cc2)C1=O (stereo unspecified) | 5.3% |
| COc1cc(C=C2C(=O)NC(=O)NC2=O)ccc1O | 13% |
| Cc1c(C(=O)c2ccccc2)c2ccccc2n1C | 15.69% |
| COc1cc2c(cc1O)CC1c3c(cc(O)c(OC)c3-2)CCN1C (stereo unspecified) | 17.23% |
| O=C(O)CN1C(=O)CN=C(c2ccccn2)c2cc(Cl)ccc21 | 13.04% |
| CN(C)C1CCc2[nH]c3c(F)cc(F)cc3c2C1 (stereo unspecified) [FLUCINDOLE] | 4.86% |
| CCC1CN1P(=O)(Oc1ccc(Cl)cc1)N1CC1CC (stereo unspecified) | 13.44% |
| C/C=C/CC1(CC)C(=O)NC(=S)NC1=O | -5.93% |
| CN1CCC2(O)OCCCC2C1 (stereo unspecified) | 7.92% |
| O=C(OC1CCCCC1)c1ccccc1C(=O)OC1CCCCC1 | -2.41% |
| C/C=C(/C)C(=O)O[C@H]1CCN2CC=C(COC(=O)[C@@](O)([C@H](C)OC)C(C)(C)O)[C@H]12 | 15.71% |
| CC(CC(C#N)(c1ccccc1)c1ccccc1)N1CCCCC1 (stereo unspecified) | -14.2% |
| COc1ccc2c(c1O)[C@]13CCN(C)[C@H](C2)[C@@H]1CCC(=O)C3 | 18.77% |
| CC[C@@]1(O)C(=O)OCc2c1cc1n(c2=O)Cc2cc3c(N)cccc3nc2-1 [9-AMINOCAMPTOTHECIN] | 22.5% |
| COc1cc(OC)cc(C2(C#N)CCN(C)CC2)c1 | -19.73% |
| CC1(C)NC(=S)C(C)(C)N1N=O | 6.84% |
| O=C1NC(=O)C(=Cc2ccc3ccccc3c2)C(=O)N1 | -1.2% |
| CNC(=O)Oc1c(O)ccnc1C | 0.75% |
| O=C1CCCN1CC#CCN1CCCC1 [OXOTREMORINE] | 4.27% |
| CC(C)(C)n1cc(C(=O)c2ccccc2)cc1-c1ccccc1 | 25.58% |
| CC(C)NC1C2CCC(CC2)C1(O)c1ccc(Cl)c(Cl)c1.CS(=O)(=O)O (stereo unspecified) | 15.8% |
| Cc1ccc2c(c1)Oc1ccccc1N=C2 | -1.96% |
| CN1CCN(c2nc(N)c(Br)c(Cl)n2)CC1 | 23.68% |

| Structure (SMILES) | Inhibition |
| --- | --- |
| COc1ccccc1NC(=O)Oc1cccc(OC(=O)c2ccccc2)c1 | 19.34% |
| CC(C)CC(NC=O)C(=O)O.COc1cc2c(cc1OC)C13CCN4CC5=CCOC6CC(=O)N2C1C6C5CC43 (stereo unspecified) | -11.88% |
| COc1cccc2c1C(=O)c1c(O)c3c(c(O)c1C2=O)C[C@@](O)(/C(C)=N\O)C[C@@H]3OC1CC(N)C(O)C(C)O1.Cl (stereo partly specified) | -15.53% |
| COc1ccc2c(c1)C13CCN(C)C(C2)C1CCC1(C3)OCCO1 (stereo unspecified) | 30.32% |
| N#CC(C#N)=Cc1ccc(C=C(C#N)C#N)cc1 | 3.43% |
| O=C(NCCCN1CC1)Nc1cccc2ccccc12 | 5.98% |
| c1cc(C2N3CCCN2CC3)ccn1 (stereo unspecified) | 22.9% |
| C=CCNC(=S)Nc1ccc(OC(=O)Nc2ccc(Cl)c(Cl)c2)cc1 | 25.55% |
| CC(=O)O.CCC(N)Cc1c[nH]c2ccccc12 (stereo unspecified) [ETRYPTAMINE ACETATE] | 10.79% |
| ClC1=C(Cl)C(Cl)=C(Cl)C1=C/C=C/c1ccccc1 | -10.5% |
| O=[As](O)(O)c1ccc(/N=N/c2ccc(O)cc2)cc1 | 8.77% |
| CN1CCC(c2c[nH]c3ccccc23)C1 (stereo unspecified) | -7.25% |
| COc1ccccc1[As](=O)(O)CC(O)COc1ccc(Cl)cc1Cl (stereo unspecified) | 26.74% |
| CC1=CC(O)C(O)C2(C)C1CC1OC(=O)C(O)C3C(C)C(O)C4(O)OCC13C42 (stereo unspecified) | 15.44% |
| O=C(Nc1ccc(F)cc1)Oc1cccnc1O | -3.06% |
| CC12CCC3C(CC=C4CC(O)CCC43C)C1C/C(=C\N1CCCC1)C2=O (stereo unspecified) | 21.38% |
| C[C@H]1[C@H](C)N1CC(O)Cn1ccnc1[N+](=O)[O-] (stereo partly specified) | 3% |
| O=[N+]([O-])c1cc(-c2ccc([As](=O)(O)O)cc2)ccc1[As](=O)(O)O | 15.52% |
| CC(Cc1ccccc1)NC(N)=O (stereo unspecified) | 22.04% |
| CCC1CN1P1(=O)OCC(C)([N+](=O)[O-])CO1 (stereo unspecified) | 6.15% |
| Cc1ncc([N+](=O)[O-])n1CCOC(N)=O [BAMNIDAZOLE] | 10.25% |
| CCOP(=O)(OCC)/C(C#N)=C/c1ccc(-c2ccc(F)cc2F)o1 | 12.92% |
| O=C1N[C@H]2[C@H](O)[C@H](O)[C@@H](O)[C@H](O)[C@@H]2c2cc3c(c(O)c21)OCO3 [PANCRATISTATIN] | 8.83% |

Some of these compounds in order of number of heavy atoms, largest number first:

| Structure (SMILES) | Inhibition |
| --- | --- |
| CC1=CC(O)C(O)C2(C)C1CC1OC(=O)C(O)C3C(C)C(O)C4(O)OCC13C42 (stereo unspecified) | 15.44% |
| O=C1N[C@H]2[C@H](O)[C@H](O)[C@@H](O)[C@H](O)[C@@H]2c2cc3c(c(O)c21)OCO3 [PANCRATISTATIN] | 8.83% |
| c1cc(C2N3CCCN2CC3)ccn1 (stereo unspecified) | 22.9% |
